This data set in a line: Body weight of streptozotosin-induced diabetic rats. It is filed as in vivo, Sprague-Dawley rats. The conditions noted are these: DM+C3G group. As to the method:
Thirty-six 12-wk-old male Sprague-Dawley rats were treated under a protocol approved by the Institutional Animal Care and Use Committee (CUMC-2010-0137-02) and handled according to NIH guidelines. Rats were divided equally into three groups (n=12 in each): control, diabetes (DM), and diabetes with C3G concentration materials treatment (DM+C3G). All rats in the DM and DM+C3G groups received a single intraperitoneal injection of streptozotosin (50 mg/kg). Blood glucose and body weight were monitored weekly and significant diabetes (serum glucose >250 mg/dl) was confirmed in all rats within 1 wk. The diabetic serum level was maintained throughout the experiment. Four weeks after the induction of diabetes, rats in the DM+C3G group were treated with daily oral C3G (10 mg/kg) dissolved in water for 8 weeks. After the 12 weeks, intracavernosal pressure measurement (ICP) was performed, and after ICP measurement, the skin-denuded middle part of the penile shafts was cut and fixed overnight in 10% formalin, washed, and stored in 70% alcohol at 4° C. until processed for paraffin-embedded tissue sectioning (5 μm). […].

Turning to `OC[C@H]1O[C@@H](Oc2cc3c(O)cc(O)cc3[o+]c2-c2ccc(O)c(O)c2)[C@H](O)[C@@H](O)[C@@H]1O` [C3G, Cyanidin-3-O-β-d-glucopyranoside], the Body weight by setting is: (4 wk after diabetes induction (start of daily oral C3G 10 mg/kg)) 418 ± 78 g; (8 wk, daily oral C3G 10 mg/kg from week 4) 408 ± 68 g; (12 wk, daily oral C3G 10 mg/kg for 8 weeks) 441 ± 85 g; (Pre-DM induction (before C3G treatment)) 441 ± 29 g.

The record behind these values is patent US9040106B2, “Pharmaceutical composition for preventing or treating diabetic erectile dysfunction comprising C3G or extract of mulberry containing C3G” (CATHOLIC UNIVERSITY INDUSTRY-ACADEMIC COOPERATION FOUNDATION, priority 2011, dated 2015).
